Results: the supplement of paper PMC12067093, “Discovery and optimisation of a covalent ligand for TRIM25 and its application to targeted protein ubiquitination” (Chemical Science, 2025)
Some of the results follow.

Compound: Cc1cc(ccc1-c1ccccc1)C(=O)N1CCCN(CC1)C(=O)CCl [compound 10]
Assay: probe-labelled cysteine peptide fold change vs DMSO (competition) (log2 fold change); higher = less target engagement (more negative = stronger competition)
Details: 10 µM; THP-1; incubation time: 4 h
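Further: competitive profiling in live THP-1 cells: cysteine peptides tagged with an iodoacetamide desthiobiotin (IA-DTB) probe, intensity after compound treatment relative to DMSO-treated cells.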

| Target | probe-labelled cysteine peptide fold change |
| --- | --- |
| PSMC6_P62333_193_AVASQLDCNFLK (UniProt P62333) | -0.219 |
| PSMD13_Q9UNM6_276_IQLLCLMEMTFTRPANHR (UniProt Q9UNM6) | -0.0798 |
| PSMC6_P62333_228_DHQPCIIFMDEIDAIGGRR (UniProt P62333) | -0.172 |
| PTK2B_Q14289_89_LAECYGLR (UniProt Q14289) | 0.064 |
| PTPRA_P18433_668_KEEECESYTVR (UniProt P18433) | 0.0723 |
| PSMB3_P49720_19_NCVAIAADR (UniProt P49720) | -0.109 |
| PSMC1_P62191_148_DLLEPGCSVLLNHK (UniProt P62191) | 0.0637 |
| PSMC2_P35998_270_ACLIFFDEIDAIGGAR (UniProt P35998) | 0.146 |
| PTPRC_P08575_789_CPDYIIQK (UniProt P08575) | 0.0331 |
| PUM2_Q8TB72_813_GHVLPLALQMYGCR (UniProt Q8TB72) | -0.0109 |
| PSMC1_P62191_399_AICTEAGLMALR (UniProt P62191) | 0.0866 |
| PSME4_Q14997_459_TYPALETLTEPHQLTATLSCVIGVAR (UniProt Q14997) | 0.121 |
| PSMD4_P55036_58_SNPENNVGLITLANDCEVLTTLTPDTGR (UniProt P55036) | -0.114 |
| PSMD6_Q15008_188_VYQGLYCVAIR (UniProt Q15008) | 0.27 |
| PTPN1_P18031_324_CREFFPNHQWVK (UniProt P18031) | -0.435 |
| PTPN12_Q05209_242_TGAICAIDYTWNLLK (UniProt Q05209) | 0.193 |
| PTPN11_Q06124_259_QGFWEEFETLQQQECK (UniProt Q06124) | -0.0531 |
| PTPN7_P35236_228_ECPEYTVR (UniProt P35236) | -0.101 |

| Target | probe-labelled cysteine peptide fold change |
| --- | --- |
| PSMG2_Q969U7_195_TLYDESCSK (UniProt Q969U7) | -0.0156 |
| PUS10_Q3MIT2_223_SLFEVSVVFAHPETVEDCHFLAAICPDCFKPAK (UniProt Q3MIT2) | 0.147 |
| PSMC2_P35998_270_KACLIFFDEIDAIGGAR (UniProt P35998) | 0.0505 |
| PSMC3_P17980_396_CTDDFNGAQCK (UniProt P17980) | 0.0919 |
| PSTPIP1_O43586_242_NALWVHSNQLSMQCVK (UniProt O43586) | 0.123 |
| PTPMT1_Q8WUK0_127+132_YQSLGQCVYVHCK (UniProt Q8WUK0) | 0.0587 |
| PSMD1_Q99460_378_NSVCHTATVIANSFMHCGTTSDQFLR (UniProt Q99460) | 0.086 |
| PTK2B_Q14289_661_CWDYDPSDRPR (UniProt Q14289) | 0.0954 |
| PTBP3_O95758_55_RDRPPCSPSR (UniProt O95758) | 0.0429 |
| PTPN23_Q9H3S7_697_TQSTCQAR (UniProt Q9H3S7) | -0.0223 |
| PTK2B_Q14289_44_VCFYSNSFNPGK (UniProt Q14289) | 0.206 |
| PSMD10_O75832_107_GAQVNAVNQNGCTPLHYAASK (UniProt O75832) | 0.213 |
| PSMB2_P49721_91_RNLADCLR (UniProt P49721) | -0.0547 |
| PSMD4_P55036_37_LQAQQDAVNIVCHSK (UniProt P55036) | -0.141 |
| PSMD10_O75832_48_TALHWACSAGHTEIVEFLLQLGVPVNDK (UniProt O75832) | 0.346 |
| PSMD2_Q13200_139_RFAADIISVLAMTMSGERECLK (UniProt Q13200) | -0.228 |
| PTPN12_Q05209_164_ISCEDEQAR (UniProt Q05209) | 0.159 |

Same assay, conditions: 50 µM; THP-1; incubation time: 4 h

| Target | probe-labelled cysteine peptide fold change |
| --- | --- |
| PSMC6_P62333_193_AVASQLDCNFLK (UniProt P62333) | -0.243 |
| PSMD13_Q9UNM6_276_IQLLCLMEMTFTRPANHR (UniProt Q9UNM6) | 0.233 |
| PSMC6_P62333_228_DHQPCIIFMDEIDAIGGRR (UniProt P62333) | -0.306 |
| PTK2B_Q14289_89_LAECYGLR (UniProt Q14289) | 0.0132 |
| PTPRA_P18433_668_KEEECESYTVR (UniProt P18433) | 0.188 |
| PSMB3_P49720_19_NCVAIAADR (UniProt P49720) | 0.229 |
| PSMC1_P62191_148_DLLEPGCSVLLNHK (UniProt P62191) | 0.0514 |
| PSMC2_P35998_270_ACLIFFDEIDAIGGAR (UniProt P35998) | 0.162 |
| PTPRC_P08575_789_CPDYIIQK (UniProt P08575) | 0.0627 |
| PUM2_Q8TB72_813_GHVLPLALQMYGCR (UniProt Q8TB72) | -0.15 |
| PSMC1_P62191_399_AICTEAGLMALR (UniProt P62191) | 0.0812 |
| PSME4_Q14997_459_TYPALETLTEPHQLTATLSCVIGVAR (UniProt Q14997) | 0.105 |
| PSMD4_P55036_58_SNPENNVGLITLANDCEVLTTLTPDTGR (UniProt P55036) | -0.0946 |
| PSMD6_Q15008_188_VYQGLYCVAIR (UniProt Q15008) | 0.332 |
| PTPN1_P18031_324_CREFFPNHQWVK (UniProt P18031) | -0.597 |
| PTPN12_Q05209_242_TGAICAIDYTWNLLK (UniProt Q05209) | -0.0209 |
| PTPN11_Q06124_259_QGFWEEFETLQQQECK (UniProt Q06124) | -0.212 |
| PTPN7_P35236_228_ECPEYTVR (UniProt P35236) | -0.0869 |

| Target | probe-labelled cysteine peptide fold change |
| --- | --- |
| PSMG2_Q969U7_195_TLYDESCSK (UniProt Q969U7) | 0.0763 |
| PUS10_Q3MIT2_223_SLFEVSVVFAHPETVEDCHFLAAICPDCFKPAK (UniProt Q3MIT2) | -0.0417 |
| PSMC2_P35998_270_KACLIFFDEIDAIGGAR (UniProt P35998) | -0.746 |
| PSMC3_P17980_396_CTDDFNGAQCK (UniProt P17980) | 0.0476 |
| PSTPIP1_O43586_242_NALWVHSNQLSMQCVK (UniProt O43586) | 0.494 |
| PTPMT1_Q8WUK0_127+132_YQSLGQCVYVHCK (UniProt Q8WUK0) | -0.0194 |
| PSMD1_Q99460_378_NSVCHTATVIANSFMHCGTTSDQFLR (UniProt Q99460) | 0.245 |
| PTK2B_Q14289_661_CWDYDPSDRPR (UniProt Q14289) | 0.138 |
| PTBP3_O95758_55_RDRPPCSPSR (UniProt O95758) | 0.226 |
| PTPN23_Q9H3S7_697_TQSTCQAR (UniProt Q9H3S7) | 0.102 |
| PTK2B_Q14289_44_VCFYSNSFNPGK (UniProt Q14289) | 0.0256 |
| PSMD10_O75832_107_GAQVNAVNQNGCTPLHYAASK (UniProt O75832) | 0.0526 |
| PSMB2_P49721_91_RNLADCLR (UniProt P49721) | -0.266 |
| PSMD4_P55036_37_LQAQQDAVNIVCHSK (UniProt P55036) | -0.273 |
| PSMD10_O75832_48_TALHWACSAGHTEIVEFLLQLGVPVNDK (UniProt O75832) | 0.374 |
| PSMD2_Q13200_139_RFAADIISVLAMTMSGERECLK (UniProt Q13200) | -0.21 |
| PTPN12_Q05209_164_ISCEDEQAR (UniProt Q05209) | 0.15 |
